Test results reported in publication PMC3592837.
These are yes or no findings as the source states them, for the method shown. In cells and extracts the contact can be indirect. Some binding calls cover weakened binding; strength is not graded here. Values belong to the molecule of their own block, whether it stands above or below them.

Protein sequences, listed by entry. Tags and fused reporters are not part of them. Residues count along the entry.
UniProt Q62230, residues 20-1695: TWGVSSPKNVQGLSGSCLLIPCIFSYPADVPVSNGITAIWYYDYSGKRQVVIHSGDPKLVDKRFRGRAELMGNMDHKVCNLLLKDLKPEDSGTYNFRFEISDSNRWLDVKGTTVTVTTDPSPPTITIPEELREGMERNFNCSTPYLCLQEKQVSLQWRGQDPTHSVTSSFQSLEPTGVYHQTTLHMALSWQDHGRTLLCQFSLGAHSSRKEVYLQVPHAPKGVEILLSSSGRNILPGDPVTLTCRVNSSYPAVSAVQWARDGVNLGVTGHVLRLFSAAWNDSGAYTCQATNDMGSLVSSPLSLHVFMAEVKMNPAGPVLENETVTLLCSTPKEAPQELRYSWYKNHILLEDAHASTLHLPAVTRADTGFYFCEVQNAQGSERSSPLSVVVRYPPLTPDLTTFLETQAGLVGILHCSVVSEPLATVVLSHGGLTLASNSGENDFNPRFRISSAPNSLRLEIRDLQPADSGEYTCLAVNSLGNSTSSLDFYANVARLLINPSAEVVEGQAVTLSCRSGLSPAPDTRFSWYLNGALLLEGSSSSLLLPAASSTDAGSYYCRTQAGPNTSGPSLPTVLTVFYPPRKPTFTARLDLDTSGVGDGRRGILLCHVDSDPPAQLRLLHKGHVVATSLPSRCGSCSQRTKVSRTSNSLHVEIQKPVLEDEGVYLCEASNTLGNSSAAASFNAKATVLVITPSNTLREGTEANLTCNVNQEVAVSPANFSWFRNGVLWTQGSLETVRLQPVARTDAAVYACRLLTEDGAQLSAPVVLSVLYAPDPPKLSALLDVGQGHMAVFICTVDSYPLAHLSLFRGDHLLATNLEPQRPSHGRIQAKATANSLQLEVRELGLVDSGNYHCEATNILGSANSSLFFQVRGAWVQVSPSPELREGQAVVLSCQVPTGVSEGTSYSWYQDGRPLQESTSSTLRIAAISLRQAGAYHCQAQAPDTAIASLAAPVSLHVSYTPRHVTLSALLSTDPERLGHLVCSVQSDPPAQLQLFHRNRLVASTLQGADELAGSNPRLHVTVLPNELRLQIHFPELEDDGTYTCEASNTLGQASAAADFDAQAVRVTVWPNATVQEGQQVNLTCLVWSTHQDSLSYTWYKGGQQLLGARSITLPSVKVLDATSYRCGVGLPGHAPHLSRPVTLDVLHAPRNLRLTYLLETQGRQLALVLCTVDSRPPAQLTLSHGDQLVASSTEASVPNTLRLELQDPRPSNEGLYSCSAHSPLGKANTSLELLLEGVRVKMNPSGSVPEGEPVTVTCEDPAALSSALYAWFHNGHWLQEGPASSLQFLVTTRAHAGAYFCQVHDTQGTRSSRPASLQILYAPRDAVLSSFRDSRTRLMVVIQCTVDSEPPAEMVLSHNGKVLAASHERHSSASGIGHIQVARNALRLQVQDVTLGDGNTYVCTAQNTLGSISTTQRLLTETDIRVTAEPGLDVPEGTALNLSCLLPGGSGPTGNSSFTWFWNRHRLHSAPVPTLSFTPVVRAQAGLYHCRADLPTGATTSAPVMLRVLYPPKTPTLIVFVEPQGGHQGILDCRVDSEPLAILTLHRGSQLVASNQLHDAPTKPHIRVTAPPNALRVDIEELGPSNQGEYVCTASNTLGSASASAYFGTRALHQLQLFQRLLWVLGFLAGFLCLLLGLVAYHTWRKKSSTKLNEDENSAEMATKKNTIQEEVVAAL

Tests used:
[1] = molecular target: T1, SR-BI (mouse (endogenous in bone marrow-derived macrophages)) (UniProt Q61009); test: co-IP; cell membrane protein (0.5 mg) of mouse BMMs stimulated with oxLDL (100 µg/ml), PMA (20 ng/ml) or LPS (0.1 µg/ml) for 48 h; IP with 3 µg rat anti-Siglec-1 (3D6.112) or rabbit polyclonal to SR-BI overnight at 4°C, Pierce Classic IP Kit; immunoblot
T1 sequence: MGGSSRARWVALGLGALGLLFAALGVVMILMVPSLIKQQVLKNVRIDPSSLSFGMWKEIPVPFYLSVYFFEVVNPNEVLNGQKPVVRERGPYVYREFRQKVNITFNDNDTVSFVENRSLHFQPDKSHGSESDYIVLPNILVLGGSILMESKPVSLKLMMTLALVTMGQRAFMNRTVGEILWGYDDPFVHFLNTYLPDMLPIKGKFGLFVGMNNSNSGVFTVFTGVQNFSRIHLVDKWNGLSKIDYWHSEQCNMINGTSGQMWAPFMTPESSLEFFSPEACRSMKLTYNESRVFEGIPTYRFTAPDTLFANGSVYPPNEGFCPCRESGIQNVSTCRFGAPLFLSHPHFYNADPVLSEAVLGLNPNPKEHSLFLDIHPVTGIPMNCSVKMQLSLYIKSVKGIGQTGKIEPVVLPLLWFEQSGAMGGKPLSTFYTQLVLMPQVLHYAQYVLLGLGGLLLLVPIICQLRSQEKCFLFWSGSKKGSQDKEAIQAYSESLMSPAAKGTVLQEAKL

[2] = molecular target: Siglec-1 (mouse (endogenous in bone marrow-derived macrophages)) (UniProt Q62230); test: co-IP; as a1, but BMMs not stimulated (culture medium for 48 h)
[3] = molecular target: Siglec-1 (mouse (endogenous in bone marrow-derived macrophages)) (UniProt Q62230); test: co-IP; cell membrane protein (0.5 mg) of mouse BMMs stimulated with oxLDL (100 µg/ml), PMA (20 ng/ml) or LPS (0.1 µg/ml) for 48 h; IP with 3 µg rat anti-Siglec-1 (3D6.112) or rabbit polyclonal to SR-BI overnight at 4°C, Pierce Classic IP Kit; immunoblot

- binding [1]: binds
Molecule: Siglec-1 (from UniProt Q62230 20-1695) (receptor)

- binding [1]: no binding
B1: caveolin-1 (protein, UniProt P49817 1-178)
chain: MSGGKYVDSEGHLYTVPIREQGNIYKPNNKAMADEVTEKQVYDAHTKEIDLVNRDPKHLNDDVVKIDFEDVIAEPEGTHSFDGIWKASFTTFTVTKYWFYRLLSTIFGIPMALIWGIYFAILSFLHIWAVVPCIKSFLIEIQCISRVYSIYVHTFCDPLFEAIGKIFSNIRISTQKEI

- binding [2]: binds weakly
- binding [3]: binds
B2: SR-BI (receptor, UniProt Q61009 1-509)
chain: T1 sequence
